Results are given in words; binding and its absence hold for the method and conditions named. Some entries that bind do so weakly or less than the wild type.
Columns and labels:
[1] = molecular target: tau aggregates in brain tissue of human subjects with AD or PSP (human) (UniProt P10636); assay: staining of brain tissue sections
human tau (human) [2] = molecular target: human tau (human) (UniProt P10636); assay: ELISA on coated tau (legend of FIG. 10)
human tau (human) [3] = molecular target: human tau (human) (UniProt P10636); assay: ELISA, 96 well plates coated with human tau at various concentrations
tau in human CSF (human) = tau in human CSF (human) (UniProt P10636); assay: sandwich ELISA, C2N-8E12 coated, biotinylated HJ8.7 detection, control human IgG4 wells as negative control
human tau (human) [4] = molecular target: human tau (human) (UniProt P10636); assay: direct ELISA on 96-well plates coated with tau at varied concentration; OD 650nm against Log (Tau, ng/ml)
human tau (human) [5] = molecular target: human tau (human) (UniProt P10636); assay: sandwich ELISA: human tau at varied concentration captured by an anti-tau antibody of another epitope (r1), detected with the named antibody; OD 650nm against Log [Tau Conc. (ng/ml)]
[6] = molecular target: variants of human tau that included the first 34 amino acids, expressed on yeast (human) (UniProt P10636); assay: yeast display, immunofluorescence
[7] = molecular target: tau aggregates in brain tissue of human subjects with AD or PSP (human) (UniProt P10636); assay: immunostaining of brain sections
Tau 1-54 (Homo sapiens) = Tau 1-54 (Homo sapiens) (UniProt P10636); assay: yeast display of tau fragments, binding by immunofluorescence
[8] = molecular target: Tau 25-135 (Homo sapiens) (UniProt P10636); assay: as above

Sequences of proteins named here, by UniProt entry; tags and fusion partners are left off. A change or cut given only in a name is not applied to a line headed by its entry. A line that says so, or that is headed by a name, gives the form on record, which may keep a tag or linker. Residues count along the entry.
Tau 1-54 (P10636, residues 1-54): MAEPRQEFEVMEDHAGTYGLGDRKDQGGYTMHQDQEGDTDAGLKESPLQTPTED
variants of human tau that included the first 34 amino acids, expressed on yeast (P10636, residues 1-34): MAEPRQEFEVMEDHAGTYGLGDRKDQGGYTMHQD
tau aggregates in brain tissue of human subjects with AD or PSP (P10636, form named): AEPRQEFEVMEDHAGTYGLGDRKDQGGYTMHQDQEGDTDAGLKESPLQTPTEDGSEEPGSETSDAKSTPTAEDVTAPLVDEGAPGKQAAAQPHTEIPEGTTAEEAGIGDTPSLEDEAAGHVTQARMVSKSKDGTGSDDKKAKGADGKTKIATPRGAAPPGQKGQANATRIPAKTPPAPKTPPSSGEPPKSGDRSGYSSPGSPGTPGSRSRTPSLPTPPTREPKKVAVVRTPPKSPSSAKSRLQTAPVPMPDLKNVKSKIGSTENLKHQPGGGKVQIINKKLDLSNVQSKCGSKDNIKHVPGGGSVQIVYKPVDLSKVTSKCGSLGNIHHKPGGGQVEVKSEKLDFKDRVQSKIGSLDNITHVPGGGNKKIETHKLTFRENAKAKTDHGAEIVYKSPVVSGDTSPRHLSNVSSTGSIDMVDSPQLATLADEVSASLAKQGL
tau in human CSF (P10636, form named): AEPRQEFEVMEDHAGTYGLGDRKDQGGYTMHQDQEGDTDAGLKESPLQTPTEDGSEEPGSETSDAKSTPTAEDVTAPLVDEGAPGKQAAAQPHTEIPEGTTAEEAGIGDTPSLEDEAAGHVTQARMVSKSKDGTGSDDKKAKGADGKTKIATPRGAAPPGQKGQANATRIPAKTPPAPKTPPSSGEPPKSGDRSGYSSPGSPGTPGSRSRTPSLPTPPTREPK
Tau 25-135 (P10636, form named): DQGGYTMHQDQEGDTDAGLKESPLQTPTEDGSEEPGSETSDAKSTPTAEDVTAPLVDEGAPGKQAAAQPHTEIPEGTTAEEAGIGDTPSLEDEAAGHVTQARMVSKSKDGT

Measured: binding

B1: VH1/VK2 humanized anti-tau antibody (C2N-8E12) (antibody, human IgG4 S228P, kappa, V domains shown)
VH: EVKVVESGGGLVQPGGSMKLSCVVSGFTFSNYWVNWVRQAPGKGLEWVAQIRLKSDNYATHYEESVKGRFTISRDDSKSSVYLQMNNLRAEDSGIYYCTNWEDYWGQGTTVTVSS
VL: DIVLTQSPDSLAVSLGERATISCRASQSVSTSRYSYIHWYQQKPGQPPKLLIKYASNLESGVPSRFSGSGSGTDFTLNIHPLEPEDFATYYCHHSWEIPLTFGQGTKLEIKR
binds: [1] | human tau (human) [2] | human tau (human) [3] | tau in human CSF (human) | human tau (human) [4] | human tau (human) [5]

B2: VH3/VK2 humanized anti-tau antibody (antibody, human IgG4 S228P, kappa, V domains shown)
VH: EVQVVESGGGLVQPGGSLKLSCVVSGFTFSNYWVNWVRQAPGKGLEWVAQIRLKSDNYATHYEESVKGRFTISRDDSKNSVYLQMNSLRAEDTAIYYCTNWEDYWGQGTTVTVSS
VL: DIVLTQSPDSLAVSLGERATISCRASQSVSTSRYSYIHWYQQKPGQPPKLLIKYASNLESGVPSRFSGSGSGTDFTLNIHPLEPEDFATYYCHHSWEIPLTFGQGTKLEIKR
binds: [1]

B3: VH4/VK3 (antibody, human IgG4 S228P, kappa, V domains shown)
VH: EVQLVESGGGLVQPGGSLKLSCVVSGFTFSNYWVNWVRQAPGKGLEWVAQIRLKSDNYATHYEESVKGRFTISRDDSKNSLYLQMNSLRAEDTAIYYCTNWEDYWGQGTTVTVSS
VL: DIVLTQSPDSLAVSLGERATISCRASQSVSTSRYSYIHWYQQKPGQPPKLLIKYASNLESGVPSRFSGSGSGTDFTLTISSLQPEDFATYYCHHSWEIPLTFGQGTKLEIKR
binds: human tau (human) [5]

B4: murine anti-tau antibody HJ8.5 (antibody, V domains shown)
VH: EVKVEESGGGLVQPGGSMKLSCVVSGFTFSNYWVNWVRQSPEKGLEWVAQIRLKSDNYATHYEESVKGRFTISRDDSKSSVYLQMNNLRAEDSGIYYCTNWEDYWGQGTTLTVSS
VL: DIVLTQSPASLAVSLGQRATISCRASQSVSTSRYSYIHWYQQKPGQPPKLLIKYASNLESGVPARFSGSGSGTDFTLNIHPLEEEDAATYYCHHSWEIPLTFGAGTKLELK
not listed: [1] | tau in human CSF (human) | human tau (human) [5]
binds: all other assays above

B5: VH2/VK2 humanized anti-tau antibody (antibody, human IgG4 S228P, kappa, V domains shown)
VH: EVKVVESGGGLVQPGGSLKLSCVVSGFTFSNYWVNWVRQAPGKGLEWVAQIRLKSDNYATHYEESVKGRFTISRDDSKSSVYLQMNSLRAEDTGIYYCTNWEDYWGQGTTVTVSS
VL: DIVLTQSPDSLAVSLGERATISCRASQSVSTSRYSYIHWYQQKPGQPPKLLIKYASNLESGVPSRFSGSGSGTDFTLNIHPLEPEDFATYYCHHSWEIPLTFGQGTKLEIKR
binds: [1] | human tau (human) [5]

B6: VH1/VK1 (antibody, human IgG4 S228P, kappa, V domains shown)
VH: EVKVVESGGGLVQPGGSMKLSCVVSGFTFSNYWVNWVRQAPGKGLEWVAQIRLKSDNYATHYEESVKGRFTISRDDSKSSVYLQMNNLRAEDSGIYYCTNWEDYWGQGTTVTVSS
VL: DIVLTQSPDSLAVSLGERATISCRASQSVSTSRYSYIHWYQQKPGQPPKLLIKYASNLESGVPSRFSGSGSGTDFTLNIHPLEEEDFATYYCHHSWEIPLTFGQGTKLEIKR
binds: human tau (human) [5]

B7: chimeric HJ8.5 monoclonal antibody (antibody, V domains shown)
VH: EVKVEESGGGLVQPGGSMKLSCVVSGFTFSNYWVNWVRQSPEKGLEWVAQIRLKSDNYATHYEESVKGRFTISRDDSKSSVYLQMNNLRAEDSGIYYCTNWEDYWGQGTTLTVSS
VL: DIVLTQSPASLAVSLGQRATISCRASQSVSTSRYSYIHWYQQKPGQPPKLLIKYASNLESGVPARFSGSGSGTDFTLNIHPLEEEDAATYYCHHSWEIPLTFGAGTKLELK
binds: [1] | [7] | human tau (human) [5]
